{"source": "PubChem BioAssay AID743454 (Peter MacCallum Cancer Centre, 2014)", "assay": "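Search for knock-downs that restore vorinostat killing in resistant colon cancer cells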 (primary screen)", "cells": "human HCT116-VR colon cancer cells, selected for vorinostat resistance", "knock-down reagent": "siRNA pool against human genes, 40 nM siRNA pool", "timing": "vorinostat for 24 h, read-out about 72 h after transfection", "conditions": "vorinostat at 2.5 µM final", "read-out": "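Cell viability by CellTiter-Fluor and caspase 3/7 activity by luminescence, each scaled to mock wells per plate, duplicates averaged, then robust z-scored over all plates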", "direction": "viability robust z-score: higher = more viable cells than screen typical; caspase robust z-score: higher = more caspase 3/7 activity than screen typical", "active means": "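a knock-down is a hit when classed RV1 or RV2 for lowered viability, or CA1 or CA2 for caspase activation; those lethal without drug were dropped; hits were retested singly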", "note": "The whole screen tested about 18,000 reagents; shown is an unselected part. 450 of all reagents (2.5%) were called active. 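Single biological run; no consistent viability z cut-off exists, so the class columns, not z-scores, define the calls.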"}
{"Target gene":"SLC75A1","viability hit class":"no change","caspase hit class":"no change","viability robust z-score":-1.13,"caspase robust z-score":0.38,"Call":"inactive"}
{"Target gene":"CCNI2","viability hit class":"no change","caspase hit class":"no change","viability robust z-score":0.31,"caspase robust z-score":1.73,"Call":"inactive"}
{"Target gene":"INPP5D","viability hit class":"no change","caspase hit class":"no change","viability robust z-score":1.06,"caspase robust z-score":0.4,"Call":"inactive"}
{"Target gene":"GJA10","viability hit class":"no change","caspase hit class":"no change","viability robust z-score":0.18,"caspase robust z-score":-0.89,"Call":"inactive"}
{"Target gene":"KDR","viability hit class":"no change","caspase hit class":"no change","viability robust z-score":0.2,"caspase robust z-score":-0.48,"Call":"inactive"}
{"Target gene":"TAS2R31","viability hit class":"no change","caspase hit class":"no change","viability robust z-score":-1.29,"caspase robust z-score":-0.83,"Call":"inactive"}
{"Target gene":"MRNIP","viability hit class":"no change","caspase hit class":"no change","viability robust z-score":0.08,"caspase robust z-score":1.72,"Call":"inactive"}
{"Target gene":"C3orf70","viability hit class":"no change","caspase hit class":"no change","viability robust z-score":0.53,"caspase robust z-score":-0.24,"Call":"inactive"}
{"Target gene":"OR10X1","viability hit class":"no change","caspase hit class":"no change","viability robust z-score":0.04,"caspase robust z-score":-0.77,"Call":"inactive"}
{"Target gene":"GNS","viability hit class":"no change","caspase hit class":"no change","viability robust z-score":-0.1,"caspase robust z-score":-0.69,"Call":"inactive"}
{"Target gene":"DNAJB13","viability hit class":"no change","caspase hit class":"no change","viability robust z-score":-0.64,"caspase robust z-score":0.22,"Call":"inactive"}
{"Target gene":"FBXL6","viability hit class":"no change","caspase hit class":"no change","viability robust z-score":-0.24,"caspase robust z-score":0.24,"Call":"inactive"}
{"Target gene":"PTGDR2","viability hit class":"no change","caspase hit class":"no change","viability robust z-score":0.02,"caspase robust z-score":0.38,"Call":"inactive"}
{"Target gene":"PEX26","viability hit class":"no change","caspase hit class":"no change","viability robust z-score":-1.32,"caspase robust z-score":0.88,"Call":"inactive"}
{"Target gene":"SIGIRR","viability hit class":"no change","caspase hit class":"no change","viability robust z-score":-0.27,"caspase robust z-score":1.29,"Call":"inactive"}
{"Target gene":"ZNF454","viability hit class":"no change","caspase hit class":"no change","viability robust z-score":-0.66,"caspase robust z-score":0.46,"Call":"inactive"}
{"Target gene":"CUL2","viability hit class":"no change","caspase hit class":"no change","viability robust z-score":-0.87,"caspase robust z-score":0.54,"Call":"inactive"}
{"Target gene":"SLC15A2","viability hit class":"no change","caspase hit class":"no change","viability robust z-score":1.19,"caspase robust z-score":-0.91,"Call":"inactive"}
{"Target gene":"ODC1","viability hit class":"no change","caspase hit class":"no change","viability robust z-score":-2,"caspase robust z-score":-0.32,"Call":"inactive"}
{"Target gene":"MLST8","viability hit class":"no change","caspase hit class":"no change","viability robust z-score":-0.37,"caspase robust z-score":-1.54,"Call":"inactive"}
{"Target gene":"KCNA1","viability hit class":"no change","caspase hit class":"no change","viability robust z-score":1.27,"caspase robust z-score":-0.05,"Call":"inactive"}

2 entries already listed, ordered by “caspase robust z-score”, low to high.
{"Target gene":"ZNF454","viability hit class":"no change","caspase hit class":"no change","viability robust z-score":-0.66,"caspase robust z-score":0.46,"Call":"inactive"}
{"Target gene":"CUL2","viability hit class":"no change","caspase hit class":"no change","viability robust z-score":-0.87,"caspase robust z-score":0.54,"Call":"inactive"}
